The source of these data is article PMC1687153.

Protein sequences, listed by entry. Tags and fused reporters are not part of them. Lines headed by an entry give the natural chain unless they say otherwise; changes in a name come on top.
UniProt Q7PL83: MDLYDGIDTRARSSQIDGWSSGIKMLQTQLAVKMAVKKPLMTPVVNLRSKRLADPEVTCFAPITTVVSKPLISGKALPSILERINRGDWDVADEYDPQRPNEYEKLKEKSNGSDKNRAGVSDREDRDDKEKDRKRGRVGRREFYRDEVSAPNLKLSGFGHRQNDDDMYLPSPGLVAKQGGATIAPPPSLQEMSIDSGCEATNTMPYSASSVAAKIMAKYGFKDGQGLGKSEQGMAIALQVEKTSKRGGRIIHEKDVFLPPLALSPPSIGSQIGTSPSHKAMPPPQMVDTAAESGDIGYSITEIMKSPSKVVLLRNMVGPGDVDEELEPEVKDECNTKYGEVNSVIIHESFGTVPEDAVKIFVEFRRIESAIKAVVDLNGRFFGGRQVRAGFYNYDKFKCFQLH

Results are given in words; binding and its absence hold for the method and conditions named. For some of these results: Binding can be weak; no strength is given. For some of these results: Sequences can lack the tags named with a protein. For some of these results: In cells and extracts the contact can be indirect.

For assay [1], the target named is T1, GST::U2A′ fusion protein (D. melanogaster) (UniProt Q9V4Q8).
T1 sequence: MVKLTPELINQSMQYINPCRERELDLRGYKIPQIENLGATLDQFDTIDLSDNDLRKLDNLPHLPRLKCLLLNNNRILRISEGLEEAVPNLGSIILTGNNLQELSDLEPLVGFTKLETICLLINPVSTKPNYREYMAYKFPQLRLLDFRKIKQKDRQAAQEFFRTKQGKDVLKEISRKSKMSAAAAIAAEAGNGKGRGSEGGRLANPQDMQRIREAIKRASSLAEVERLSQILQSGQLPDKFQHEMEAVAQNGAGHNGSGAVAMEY
As to the kind of experiment: pull-down; GST or GST-tagged protein on glutathione beads incubated overnight at 4 °C with 2.5 mg extract of 3- to 18-h-old embryos; Western blots with antibodies against SPF45 or SNF; only the target purified. A general note: In western blotting, separated proteins are transferred to a membrane and probed.

Assay [2] addresses T2, U2A′, yeast two-hybrid fusion (D. melanogaster) (UniProt Q9V4Q8).
T2 sequence: T1 sequence
As to the kind of experiment: two-hybrid; GAL4 activation domain (pACT2) and GAL4 DNA-binding domain (pAS2-1) fusions cotransformed into the diploid strain pJ69A/SL3004; growth on selective media with 1 mM 3-amino-1,2,4-triazole (HIS3 reporter) after 3 days.

Assay [3] addresses GST::RAD201 fusion protein (D. melanogaster). The assay is described as follows: pull-down; GST or GST-tagged protein on glutathione beads incubated overnight at 4 °C with 2.5 mg extract of 3- to 18-h-old embryos; Western blots with antibodies against SPF45 or SNF; only the target purified.
Assay [4] addresses D. melanogaster SPF45 protein (endogenous, wild type) (D. melanogaster (endogenous in embryos)) (UniProt Q7PL83). As to the kind of experiment: co-IP; immunoprecipitations with antibodies against U2A′, SPF45 and SNF from embryo nuclear extracts, Western blots.

Take “D. melanogaster SPF45 protein (endogenous, wild type) (from UniProt Q7PL83)”: the binding entry in assay [1] is reported as “binds”.

As for “SPF45 RRM-like motif alone (amino acids 304-403), yeast two-hybrid fusion (D. melanogaster) (domain or fragment)”, the binding result in assay [2] was “binds”.

B1: SNF (endogenous) (protein, UniProt P43332 1-216)
chain: MEMLPNQTIYINNLNEKIKKEELKKSLYAIFSQFGQILDIVALKTLKMRGQAFVIFKEIGSASNALRTMQGFPFYDKPMQIAYSKSDSDIVAKIKGTFKERPKKVKPPKPAPGTDEKKDKKKKPSSAENSNPNAQTEQPPNQILFLTNLPEETNEMMLSMLFNQFPGFKEVRLVPNRHDIAFVEFTTELQSNAAKEALQGFKITPTHAMKITFAKK
As to B1, the binding result in assay [3] was “no binding”; in assay [4], “binds”.
